Laboratory results as given in patent US20140038900A1.
Results are given in words; binding and its absence hold for the method and conditions named. In cells and extracts the contact can be indirect. Some entries that bind do so weakly or less than the wild type.

Sequences of proteins named here, by UniProt entry; tags and fusion partners are left off. A change or cut given only in a name is not applied to a line headed by its entry.
UniProt Q92598: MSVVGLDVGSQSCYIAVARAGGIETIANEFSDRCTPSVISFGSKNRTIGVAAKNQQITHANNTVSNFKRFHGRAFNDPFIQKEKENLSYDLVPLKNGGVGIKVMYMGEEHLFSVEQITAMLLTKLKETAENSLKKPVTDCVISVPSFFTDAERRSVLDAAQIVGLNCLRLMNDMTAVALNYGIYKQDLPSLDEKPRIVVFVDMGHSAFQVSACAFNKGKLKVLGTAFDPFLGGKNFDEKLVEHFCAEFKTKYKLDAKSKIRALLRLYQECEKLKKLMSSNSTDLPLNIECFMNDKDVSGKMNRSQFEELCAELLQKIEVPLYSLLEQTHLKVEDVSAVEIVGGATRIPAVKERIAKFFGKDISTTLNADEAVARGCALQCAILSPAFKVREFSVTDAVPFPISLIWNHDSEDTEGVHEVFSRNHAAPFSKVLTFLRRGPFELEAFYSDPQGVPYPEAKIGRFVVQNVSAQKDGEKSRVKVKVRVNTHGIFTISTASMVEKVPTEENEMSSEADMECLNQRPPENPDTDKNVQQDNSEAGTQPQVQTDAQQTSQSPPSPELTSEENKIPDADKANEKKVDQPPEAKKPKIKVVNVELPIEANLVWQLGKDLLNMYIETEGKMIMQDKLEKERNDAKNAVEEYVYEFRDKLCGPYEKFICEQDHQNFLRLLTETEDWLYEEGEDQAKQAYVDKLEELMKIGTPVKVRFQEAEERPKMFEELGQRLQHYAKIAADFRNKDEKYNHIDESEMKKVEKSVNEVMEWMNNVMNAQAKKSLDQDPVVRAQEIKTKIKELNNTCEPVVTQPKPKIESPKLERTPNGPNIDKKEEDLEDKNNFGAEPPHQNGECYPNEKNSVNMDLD
UniProt P04792: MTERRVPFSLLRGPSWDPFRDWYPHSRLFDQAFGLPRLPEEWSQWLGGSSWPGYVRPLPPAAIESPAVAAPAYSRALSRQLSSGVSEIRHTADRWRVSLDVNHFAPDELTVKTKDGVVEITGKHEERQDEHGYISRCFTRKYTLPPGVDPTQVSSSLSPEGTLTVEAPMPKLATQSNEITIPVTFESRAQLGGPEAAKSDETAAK
UniProt P0DMV8: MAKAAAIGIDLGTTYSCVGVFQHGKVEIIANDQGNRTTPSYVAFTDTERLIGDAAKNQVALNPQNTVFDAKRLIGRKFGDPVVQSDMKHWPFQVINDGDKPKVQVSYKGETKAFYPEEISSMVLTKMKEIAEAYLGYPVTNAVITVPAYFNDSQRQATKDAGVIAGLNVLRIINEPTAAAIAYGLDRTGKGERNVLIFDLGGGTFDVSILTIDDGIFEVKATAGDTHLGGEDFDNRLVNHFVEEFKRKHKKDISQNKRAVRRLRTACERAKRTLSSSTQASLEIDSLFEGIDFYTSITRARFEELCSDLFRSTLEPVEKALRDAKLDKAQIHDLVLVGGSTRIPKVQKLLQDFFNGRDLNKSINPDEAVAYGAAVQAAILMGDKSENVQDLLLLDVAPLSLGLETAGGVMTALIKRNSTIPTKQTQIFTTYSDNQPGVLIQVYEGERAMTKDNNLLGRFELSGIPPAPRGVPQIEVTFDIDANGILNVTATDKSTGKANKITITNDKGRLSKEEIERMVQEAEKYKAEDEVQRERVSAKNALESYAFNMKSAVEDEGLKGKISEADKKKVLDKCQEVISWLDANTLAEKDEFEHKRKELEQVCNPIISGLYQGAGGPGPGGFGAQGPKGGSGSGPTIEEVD
UniProt Q5R606: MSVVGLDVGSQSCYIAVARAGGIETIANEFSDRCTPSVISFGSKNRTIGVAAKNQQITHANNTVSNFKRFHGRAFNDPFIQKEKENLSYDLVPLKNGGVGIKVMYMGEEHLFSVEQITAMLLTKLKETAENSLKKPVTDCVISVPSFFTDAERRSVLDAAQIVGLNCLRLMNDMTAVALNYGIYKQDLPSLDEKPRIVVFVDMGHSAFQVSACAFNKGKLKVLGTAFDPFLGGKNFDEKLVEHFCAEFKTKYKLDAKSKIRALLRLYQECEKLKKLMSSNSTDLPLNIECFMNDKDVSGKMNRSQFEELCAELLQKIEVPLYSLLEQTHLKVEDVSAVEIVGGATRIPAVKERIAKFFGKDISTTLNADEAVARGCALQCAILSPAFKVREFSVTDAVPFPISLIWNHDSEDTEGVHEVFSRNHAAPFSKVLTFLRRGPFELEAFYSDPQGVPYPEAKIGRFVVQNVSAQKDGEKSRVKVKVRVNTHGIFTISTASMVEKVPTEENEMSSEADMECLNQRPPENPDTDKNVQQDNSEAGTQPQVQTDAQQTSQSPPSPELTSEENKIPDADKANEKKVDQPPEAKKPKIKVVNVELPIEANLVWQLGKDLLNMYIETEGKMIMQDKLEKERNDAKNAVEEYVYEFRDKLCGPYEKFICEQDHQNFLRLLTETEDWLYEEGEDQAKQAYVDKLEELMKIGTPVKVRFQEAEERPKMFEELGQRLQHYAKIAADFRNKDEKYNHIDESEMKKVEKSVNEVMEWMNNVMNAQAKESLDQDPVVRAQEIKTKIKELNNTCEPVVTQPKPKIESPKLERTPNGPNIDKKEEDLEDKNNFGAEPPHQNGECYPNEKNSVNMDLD

How the values were obtained:
[1] = molecular target: wild-type HSP110 (heat-shock protein 110), GFP-tagged (Homo sapiens (Human)) (UniProt Q92598); assay: co-immunoprecipitation, transfected HCT116 cells (told again in the discussion)
[2] = molecular target: wild-type HSP110 (heat-shock protein 110), GFP-tagged (Homo sapiens (Human)) (UniProt Q92598); assay: co-immunoprecipitation (antibody to the C-terminus of HSP110) and GFP immunoblot, transfected HCT116 cells
[3] = molecular target: heat-shock protein 27 (HSP27) (UniProt P04792); assay: co-immunoprecipitation and Western blot, HCT116 cells
[4] = molecular target: heat-shock protein 70 (HSP70) (UniProt P0DMV8); assay: as above

binding [1]	binding [2]	binding [3]	binding [4]	Substance
binds	binds			mutated HSP110 lacking exon 9 (HSP110delE9), GFP-tagged (from UniProt Q5R606 1-380)
		binds	binds	wild-type HSP110 (heat-shock protein 110), GFP-tagged (from UniProt Q92598 1-858)
